No constants are given. Whether binding was seen depends on the method and setting. Binding seen in cells or lysates may run through a third protein. Some entries that bind do so weakly or less than the wild type. Tags and fused reporters may be left off the sequences shown.
Target: T1, GRAS-1::GFP (C. elegans) (UniProt Q93654)
T1 sequence: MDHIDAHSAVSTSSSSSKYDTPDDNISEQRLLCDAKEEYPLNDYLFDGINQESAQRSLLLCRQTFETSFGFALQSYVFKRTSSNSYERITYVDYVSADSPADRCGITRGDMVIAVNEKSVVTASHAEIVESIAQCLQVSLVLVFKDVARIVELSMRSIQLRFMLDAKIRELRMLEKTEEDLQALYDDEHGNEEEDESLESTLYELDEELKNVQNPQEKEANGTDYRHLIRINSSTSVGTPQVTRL
Assay: co-IP

B1: SYP-3 (protein, UniProt O62238 1-224)
chain: MNFEKLVSQAVNGDRFKIFCGQLTEFTNSLAGEREAIEKGMRQIETQQLEAETSFTERIAEDRVKCAAQRESLERQLQDLTATDNKLSEQKRDWEERQEKAYDELMSYLENEDVDSAGTQFGDHFNSLIKSMNNLSHDSMNGQFNSLKNNLDELNIEKKQLEVAIADQSSTISEMIPSLRPTCGATYKERNTLRIIFHYQVAKLRSEYQKCRLQEEALKARLST
binding: binds

From publication doi:10.1101/2022.09.06.506874
